Publication PMC6443996, “1‐Hydroxy‐xanthine derivatives inhibit the human Caf1 nuclease and Caf1‐containing nuclease complexes via Mg^2+‐dependent binding” (FEBS Open Bio, 2019)
These are yes or no findings as the source states them, for the method shown. Some entries that bind do so weakly or less than the wild type.

Sequences of proteins named here, by UniProt entry; tags and fusion partners are left off. Residues count along the entry.
UniProt A5YKK6, residues 1093-1595: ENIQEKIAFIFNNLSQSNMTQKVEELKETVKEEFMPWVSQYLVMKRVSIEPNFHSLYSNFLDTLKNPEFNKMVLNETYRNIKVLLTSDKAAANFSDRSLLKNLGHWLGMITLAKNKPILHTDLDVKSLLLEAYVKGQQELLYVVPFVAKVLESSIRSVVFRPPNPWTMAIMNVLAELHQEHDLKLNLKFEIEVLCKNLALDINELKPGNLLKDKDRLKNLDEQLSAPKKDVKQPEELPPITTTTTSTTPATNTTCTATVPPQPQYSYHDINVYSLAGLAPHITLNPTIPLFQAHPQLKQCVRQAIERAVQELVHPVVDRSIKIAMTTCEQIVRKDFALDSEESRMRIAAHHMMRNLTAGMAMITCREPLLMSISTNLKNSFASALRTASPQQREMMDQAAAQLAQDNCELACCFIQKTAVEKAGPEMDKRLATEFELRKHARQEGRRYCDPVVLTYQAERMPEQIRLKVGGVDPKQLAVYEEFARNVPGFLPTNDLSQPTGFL
UniProt Q92600, residues 33-283: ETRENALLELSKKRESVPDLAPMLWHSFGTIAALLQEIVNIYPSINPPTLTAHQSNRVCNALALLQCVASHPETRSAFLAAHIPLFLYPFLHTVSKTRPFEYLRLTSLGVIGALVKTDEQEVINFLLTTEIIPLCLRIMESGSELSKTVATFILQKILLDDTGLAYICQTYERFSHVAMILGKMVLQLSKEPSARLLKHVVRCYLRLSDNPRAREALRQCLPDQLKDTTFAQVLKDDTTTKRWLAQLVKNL

Target: CNOT1 (MIF4G and DUF3819 domains; amino acids 1093–1595) (human) (UniProt A5YKK6)
Assay: co-expression and co-purification by affinity chromatography; proteins co-expressed in E. coli, complex purified by affinity chromatography as described before; purified proteins separated by 14% SDS/PAGE, Coomassie Brilliant Blue

## CNOT9 (ARM domain; amino acids 33–283) (from UniProt Q92600 33-283) (domain or fragment)
  binding: binds
